## Results from one PubChem assay

The results are deposited in PubChem (AID1159506; NCATS, 2015).

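Genome-wide siRNA knockdown in TC32 Ewing sarcoma cells, comparing luciferase light from an NR0B1-promoter reporter with a CMV-promoter reporter 48 hours after transfection.
Each siRNA was applied at 20 nM.
A z-score of the log NR0B1-over-CMV signal, less the median of siRNAs with the same seed; more negative means a stronger specific loss of the NR0B1 reporter.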

The strongest results of the screen are mostly left out here.
Sequences are the guide (antisense) strand, without overhang.

Sequence,target gene,seed-corrected z-score
UGACCGCCAACUCUCCUUC,RASSF7,0.2054
AAUGCAUUCAUGGAAACUG,KIF18B,0.06455
UUCAGCAUCACAUAGGAGA,DPM2,-0.3611
UCUUGAGCCGCUGUUAGCU,NR1H2,-0.3755
UCAUUGUGAAUAGAUACUG,TRNT1,0.3367
UCAAUUUCCUCCAGAAUGC,CAMSAP3,-0.229
UAAGCUGACAACAUAAGUG,OR4K15,-0.5594
UGAAGUAAAGUAAUCGUUG,C6,1.237
AAUGAAUAGGGCAGAAUGC,RHEBL1,0.5189
AUAUGAAACAUUAGGUCUC,PRKCI,-0.2999
UUCCAGAAAAUUGGCUUAG,RPL36AP8,0.525
UACUGAGAAUGUUCAGGGC,LOC388572,-0.9567
UACAGUCACAGAUAUUGCG,LRRC37B,0.7233
AUAGUCAUACUCCUCGGCC,EFS,0.3337
UUCUCUAAUGUUAUGGUGC,FABP9,0.2811
UAACGGACCUUGUAGCCUC,FGFR1,-0.004018
UAACAAUCCAACAUCUUCC,LTV1,0.2423
UAAUCAGUCAGGUCUCUCC,ACTBL2,-0.2844
UCAUCUUCAUCCUUCGAUU,HOXC9,0.4725
UGUGCAACUACGAUAGCCC,SLC17A5,-0.6149
AAUUCGAAUAUCAAACACC,USP40,-0.5125
AAACUUACGACCCACCACC,IER3,-0.4443
AACUGUUUCAUGACGGCGC,RBM14,-1.534
UGCUCGAAGAUGGUCAGCC,CRYBA4,0.5071
UUAAUGAUCGUCGUUUUGC,ARL6,-0.1493
AAAGUUGUCACUCUUUGAC,CALB2,-0.4068
AUUUUGACAUUGACGAUUC,ADAM12,0.07856
UCUGGAUCUACAUCAACAC,CKAP2,-0.4404
UUCAUAAUCGGUCCAGUCG,DRAXIN,0.3178
UUUUGAACGAGAUCUUCCC,CETN1,1.092
AUUUGGUUACAGUAGGUGG,RNASE1,0.6158
UCAGUAGCAGGAUGGACUC,LRRC61,2.241
AAGGGUAUAAGGCACAGCC,LHFPL1,-1.715
AUCCUUUUGGCUCAAACUC,ZNF680P1,-0.5673
UUUGUUACAUGUGAAAAGC,EHMT1-IT1,-0.1383
UCAAUAACCCGAAUCUUGC,CORO2A,0.05596
UAGAGGAUAAAGGUGGGCG,TNK1,0.9749
UUAGGGACAAGGUACAUAU,H2BFM,0.005847
UGAAUUUGAACUGUUCCUC,FAM192A,0.9794
UCACGGUCUUGUCAAUCUC,DUS1L,-0.542
UCAUUGGAGACAAUUAUCC,KHNYN,0.276

Repeated from the top, 4 entries:

{"sequence": "UGACCGCCAACUCUCCUUC", "target gene": "RASSF7", "seed-corrected z-score": "0.2054"}
{"sequence": "AAUGCAUUCAUGGAAACUG", "target gene": "KIF18B", "seed-corrected z-score": "0.06455"}
{"sequence": "UUCAGCAUCACAUAGGAGA", "target gene": "DPM2", "seed-corrected z-score": "-0.3611"}
{"sequence": "UCUUGAGCCGCUGUUAGCU", "target gene": "NR1H2", "seed-corrected z-score": "-0.3755"}